Laboratory results reported in US9403872B2 (priority 1999, dated 2016).
At least one compound was matched to its structure with a doubt left.

System: human fibrosarcoma HT1080 cells
Type: cell-based

CNC(=O)[C@H](Cc1ccccc1)NC(=O)[C@H](CC(C)C)[C@H](CSc1cccs1)C(=O)NO [BB94, Batimastat]
protection of HT1080 cells against WT-PA plus FP59: did not protect
